The target of experiment [1] is ACVR2A mouse Fc fusion protein (mouse). Description: Activin A competitive ELISA: ACVR2A mouse Fc fusion coated, Fab titrated, then 16.7 nM Activin A added; bound Activin A detected (luminescence). (In general: An ELISA detects its analyte on a solid surface through an enzyme-linked reagent.)
Experiment [2] shares this target. Description: Activin A competitive ELISA: ACVR2A mouse Fc fusion coated, IgG titrated, then 16.7 nM Activin A added; bound Activin A detected (luminescence).

Results are given in words; binding and its absence hold for the method and conditions named. Some results given as binding are weak or reduced against the parent protein; the word gives no strength.

B1: 2108 (antibody, V domains shown)
VH: QVQLVQSGAEVKKPGSSVKVSCKASGPRFQDLSISWVRQAPGQGLEWMGGIIPIYGTANYAQKFQGRVTITADESTSTAYMELSSLRSEDTAVYYCVKDLTWTNLGLDIWGQGTMVTVSS
VL: EIVMTQSPSSLSASVGDTVTITCRASQGVSRWLAWYQQKPGKAPRLLIYHARFLQSGVPSRFSGSGSGTHFTLTISSLQPEDFATYFCQQSYSTPFTFGPGTKLEIK
On to B1, for which the binding result in experiment [1] and in experiment [2] was “binds” each time.

B2: 366 (antibody, V domains shown)
VH: QVQLVQSGAEVKKPGSSVKVSCKASGFQFRTSLISWVRQAPGQGLEWMGGLIPIFGTANYAQKFQGRVTITADESTSTAYMELSSLRSEDTAVYYCVKDLTWTNLGLDIWGQGTMVTVSS
VL: EIVMTQSPSSLSASVGDTVTITCRASQGASQWLKWYQQKPGKAPRLLIYAASSLHSGVPSRFSGSGSGTHFTLTISSLQPEDFATYFCQQSYSTPFTFGPGTKLEIK
Consider B2, for which the binding entry in experiment [1] and in experiment [2] was “binds” each time.

Source of the values: patent US20240368289A1 (LAEKNA THERAPEUTICS SHANGHAI, published 2024).
